Test results reported in publication PMC10855757.
For at least one entry, the source does not settle the construct or the ends of the probe. The comparison behind a weaker result is the experiment's own reference, which may not be listed here. Protein sequences can lack the tags named with them. At least one verdict was read from the data and is not stated in words by the source.

Biological target: T1, DraLF-PolI (DNA polymerase I Large Fragment) (Deinococcus radiodurans) (UniProt P52027)
T1 sequence (looked up): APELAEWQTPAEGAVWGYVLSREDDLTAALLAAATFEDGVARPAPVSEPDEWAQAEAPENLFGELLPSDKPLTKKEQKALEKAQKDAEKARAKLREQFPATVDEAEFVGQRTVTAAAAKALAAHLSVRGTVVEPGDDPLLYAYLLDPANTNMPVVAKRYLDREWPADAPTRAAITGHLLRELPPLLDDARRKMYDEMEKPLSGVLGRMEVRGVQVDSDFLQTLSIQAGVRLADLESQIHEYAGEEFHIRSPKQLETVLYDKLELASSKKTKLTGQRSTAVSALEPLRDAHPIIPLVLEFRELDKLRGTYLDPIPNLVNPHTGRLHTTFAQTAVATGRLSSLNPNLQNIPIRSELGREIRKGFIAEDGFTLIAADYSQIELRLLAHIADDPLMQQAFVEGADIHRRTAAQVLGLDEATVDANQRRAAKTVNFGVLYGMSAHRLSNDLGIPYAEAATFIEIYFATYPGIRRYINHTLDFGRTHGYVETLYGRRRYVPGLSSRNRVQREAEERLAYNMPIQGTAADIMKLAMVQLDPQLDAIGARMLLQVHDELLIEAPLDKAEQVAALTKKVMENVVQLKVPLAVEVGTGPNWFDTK
Test: EMSA
Conditions: 5 mM MgCl2, 2 mM EDTA, 20 mM Tris/HCl pH 7.5, 3.5 mM beta-mercaptoethanol, 50 mM NaCl, 0.05 uM DNA, 0.5-40 pmol protein in 10 uL, 10 min at room temperature, recombinant protein

[1] = residues 362-956, protein details: C-terminal His6, label: 5'-Cy5 on strand 2

Sequence	binding result (binding 'visibly altered', residues 362-956, protein details: C-terminal His6, label: 5'-Cy5, single-stranded DNA)	binding result [1]
GCTATCGTACATGATATCCTC [21mer-Cy5 ssDNA]	binds more weakly	–
GTAGTGACTGGGAAAACATGTACGATAGCGAGGATATCATGTACGATAGC (double strand) [dsDNA (DS: 50mer + 50mer-Cy5)]	–	binds
GTAGTGACTGGGAAAACATGTACGATAGCGAGGATATCATGTACGATAGC / GCTATCGTACATGATATCCTC [primed DNA (PE: 50mer + 21mer-Cy5)]	–	binds
